For the experiment, the target named is mouse CD28 on mouse splenic CD4+ and CD8+ T cells (mouse) (UniProt P31041). The experiment can be described thus: flow cytometry receptor occupancy on mouse splenocytes.

Sequences of proteins named here, by UniProt entry; tags and fusion partners are left off. Residues count along the entry.
UniProt P31041, residues 20-218: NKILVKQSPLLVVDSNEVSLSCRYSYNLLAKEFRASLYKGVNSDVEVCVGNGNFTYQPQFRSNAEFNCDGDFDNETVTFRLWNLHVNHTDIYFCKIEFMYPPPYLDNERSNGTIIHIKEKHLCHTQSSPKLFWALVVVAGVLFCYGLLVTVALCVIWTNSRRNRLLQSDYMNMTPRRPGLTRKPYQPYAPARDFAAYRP

No constants are given. Whether binding was seen depends on the method and setting. Some results given as binding are weak or reduced against the parent protein; the word gives no strength. Sequences can lack the tags named with a protein.

B1: mouse surrogate fusion protein comprising the extracellular domain (ECD) of murine CD80 linked to the Fc domain of mouse IgG2a wild type (mCD80-Fc) (Fc fusion)
chain: VDEQLSKSVKDKVLLPCRYNSPHEDESEDRIYWQKHDKVVLSVIAGKLKVWPEYKNRTLYDNTTYSLIILGLVLSDRGTYSCVVQKKERGTYEVKHLALVKLSIKADFSTPNITESGNPSADTKRITCFASGGFPKPRFSWLENGRELPGINTTISQDPESELYTISSQLDFNTTRNHTIKCLIKYGDAHVSEDFTWEKPPEDPPDSKNEPRGPTIKPCPPCKCPAPNLLGGPSVFIFPPKIKDVLMISLSPIVTCVVVDVSEDDPDVQISWFVNNVEVHTAQTQTHREDYNSTLRVVSALPIQHQDWMSGKEFKCKVNNKDLPAPIERTISKPKGSVRAPQVYVLPPPEEEMTKKQVTLTCMVTDFMPEDIYVEWTNNGKTELNYKNTEPVLDSDGSYFMYSKLRVEKKNWVERNSYSCSVVHEGLHNHHTTKSFSRTPGK
notes: also called Murine CD80 ECD Fusion Molecules; Mouse CD80 ECD mouse Fc IgG2a
Take B1: the binding entry is “binds”.

These data come from US20220031806A1 (Five Prime, published 2022).
